Test system: dd-strain male mice
Settings: i.p., 72 hours
Description: The lethal dose was estimated from the death of animals 72 hours after administration.

SMILES: CN1C(=O)CN=C(c2ccccc2)c2cc(Cl)ccc21 [diazepam, reference compound]
- acute toxicity (lethal dose): 300 to 1000 mg/kg
